Experiment [1] addresses Light chain of I0. The experiment is described as follows: co-expression, LC-MS of the product.
Experiment [2] has as its target Light chain of I0. The experiment is described as follows: co-expression of heavy and light chain (I/D-1), LC-MS of the product; √ = mispaired molecule detected.

Data on one substance can be found in patent publication US20230120270A1.

Results are given in words; binding and its absence hold for the method and conditions named. In cells and extracts the contact can be indirect. Some results given as binding are weak or reduced against the parent protein; the word gives no strength.

As to “Heavy chain of D0 (from UniProt P0DOX5 1-449)”, the binding entry with Light chain of I0 [1] and with Light chain of I0 [2] was “binds” each time.
